Laboratory results reported in the supplement of paper PMC4604168 (melanoma cell lines).
Some of the results follow. Repeats are few or missing, and single values can be far off.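 Cells were imaged in 1,536-well plates, and nuclei stained with an antibody against cleaved PARP were counted against all DNA-stained nuclei to give the apoptosis fraction. Screening doses were chosen to leave most cells alive, and resting and induced cleaved-PARP levels differ strongly between cell lines.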

What was measured:
Test in all cases: cleaved PARP positive nuclei fraction relative to DMSO control; melanoma cells; higher = more apoptosis
Settings in all cases: library dose: low library concentration; 72 h
501Mel = tested on: 501Mel
A101D = tested on: A101D
A2058 = tested on: A2058
A375 = tested on: A375
C32 = tested on: C32
CBRC008 = tested on: CBRC008 (line from a melanoma biopsy)
CBRC013 = tested on: CBRC013 (line from a melanoma biopsy)
CBRC014 = tested on: CBRC014 (line from a melanoma biopsy)
CBRC016 = tested on: CBRC016 (line from a melanoma biopsy)
CBRC017 = tested on: CBRC017 (line from a melanoma biopsy)

Row | SMILES | cleaved PARP positive nuclei fraction (501Mel) | cleaved PARP positive nuclei fraction (A101D) | cleaved PARP positive nuclei fraction (A2058) | cleaved PARP positive nuclei fraction (A375) | cleaved PARP positive nuclei fraction (C32) | cleaved PARP positive nuclei fraction (CBRC008) | cleaved PARP positive nuclei fraction (CBRC013) | cleaved PARP positive nuclei fraction (CBRC014) | cleaved PARP positive nuclei fraction (CBRC016) | cleaved PARP positive nuclei fraction (CBRC017)
1 | O=C(CCCCCCC(=O)Nc1ccccc1)NO [vorinostat] + O=C(O)c1ccc(-c2c[nH]c3ncc(-c4ccccc4)cc23)cc1C1CCCC1 [GSK650394] (first compound 0.08 µM, partner dose 0.16 µM) | 93.4% | 84.9% | 150% | 234% | 43.4% | 247% | 87.4% | 88.4% | 159% | 142%
2 | Clc1ccc(Nc2nnc(Cc3ccncc3)c3ccccc23)cc1 [vatalanib] + OCCn1cc(-c2cnc3nnn(Cc4ccc5ncccc5c4)c3n2)cn1 [PF04217903] (first compound 2 µM, partner dose 1 µM) | 97.3% | 154% | 36.4% | 52% | 207% | 56.7% | 96.2% | 128% | 111% | 117%
3 | C=CCn1c(=O)c2cnc(Nc3ccc(N4CCN(C)CC4)cc3)nc2n1-c1cccc(C(C)(C)O)n1 + Cc1cc(N2CCOCC2)cc2[nH]c(-c3c(NC[C@@H](O)c4cccc(Cl)c4)cc[nH]c3=O)nc12 [BMS536924] (first compound 0.02 µM, partner dose 0.2 µM) | 229% | 44% | 53.7% | 557% | 125% | 191% | 162% | 118% | 161% | 177%
4 | Cc1nc(Nc2ncc(C(=O)Nc3c(C)cccc3Cl)s2)cc(N2CCN(CCO)CC2)n1 [dasatanib] + CC(C)(C)c1cnc(CSc2cnc(NC(=O)C3CCNCC3)s2)o1 [SNS-032] (first compound 0.004 µM, partner dose 0.01 µM) | 110% | 789% | 116% | 106% | 189% | 80.9% | 150% | 88.7% | 88.2% | 69.8%
5 | CC(=O)c1c(C)c2cnc(Nc3ccc(N4CCNCC4)cn3)nc2n(C2CCCC2)c1=O [palbociclib] + COc1cc2c(Oc3ccc4[nH]c(C)cc4c3F)ncnc2cc1OCCCN1CCCC1 [cediranib] (first compound 0.04 µM, partner dose 0.4 µM) | 154% | 47.2% | 160% | 55.7% | 33.6% | 81.3% | 102% | 89.8% | 246% | 136%
6 | NC(=O)Nc1cc(-c2cccc(F)c2)sc1C(=O)N[C@H]1CCCNC1 + O=C(O)c1ccc(-c2c[nH]c3ncc(-c4ccccc4)cc23)cc1C1CCCC1 [GSK650394] (first compound 0.02 µM, partner dose 0.16 µM) | 82.7% | 210% | 193% | 570% | 124% | 177% | 111% | 106% | 130% | 133%
7 | C=CCNC1=C2C[C@@H](C)C[C@H](OC)[C@H](O)[C@@H](C)/C=C(\C)[C@H](OC(N)=O)[C@@H](OC)/C=C\C=C(/C)C(=O)NC(=CC1=O)C2=O [Tanespimycin] + Cn1cncc1[C@@](N)(c1ccc(Cl)cc1)c1ccc2c(c1)c(-c1cccc(Cl)c1)cc(=O)n2C [tipifarnib] (first compound 0.002 µM, partner dose 0.01 µM) | 108% | 96.8% | 143% | 54.8% | 826% | 1600% | 174% | 299% | 113% | 110%
8 | Cc1ccc(NC(=O)c2cccc(N(C)C)c2)cc1NC(=O)c1ccc(O)cc1 + OCCn1cc(-c2cnc3nnn(Cc4ccc5ncccc5c4)c3n2)cn1 [PF04217903] (first compound 2 µM, partner dose 1 µM) | 257% | 42% | 174% | 99.1% | 192% | 77.1% | 107% | 100% | 109% | 125%
9 | O=C(CCCCCCC(=O)Nc1ccccc1)NO [vorinostat] + CN(C)S(=O)(=O)c1ccc2c(c1)/C(=C/c1cc3c([nH]1)CCCC3)C(=O)N2 [SU6656] (first compound 0.08 µM, partner dose 0.4 µM) | 175% | 83.3% | 176% | 255% | 83.1% | 148% | 70.1% | 88.6% | 206% | 112%
10 | COCC[n+]1c2c(n(Cc3cnccn3)c1C)C(=O)c1ccccc1C2=O + COc1cc(Nc2ncc(F)c(Nc3ccc4c(n3)NC(=O)C(C)(C)O4)n2)cc(OC)c1OC [Tamatinib] (first compound 0.0004 µM, partner dose 0.4 µM) | 108% | 49.3% | 337% | 231% | 78.3% | 1480% | 157% | 181% | 157% | 109%
11 | Cc1cc(N2CCOCC2)cc2[nH]c(-c3c(NC[C@@H](O)c4cccc(Cl)c4)cc[nH]c3=O)nc12 + O=C(O)c1ccc(-c2c[nH]c3ncc(-c4ccccc4)cc23)cc1C1CCCC1 [GSK650394] (first compound 0.2 µM, partner dose 0.16 µM) | 110% | 106% | 95.3% | 283% | 160% | 414% | 143% | 111% | 149% | 82.8%
12 | C#Cc1cccc(Nc2ncnc3cc(OCCOC)c(OCCOC)cc23)c1 [erlotinib] + Cc1cc(N2CCOCC2)cc2[nH]c(-c3c(NC[C@@H](O)c4cccc(Cl)c4)cc[nH]c3=O)nc12 [BMS536924] (first compound 0.8 µM, partner dose 0.2 µM) | 96.9% | 187% | 36.9% | 118% | 99.5% | 312% | 227% | 93.1% | 111% | 98.4%
13 | Cc1ccc(NC(=O)c2cccc(N(C)C)c2)cc1NC(=O)c1ccc(O)cc1 + CN(C)S(=O)(=O)c1ccc2c(c1)/C(=C/c1cc3c([nH]1)CCCC3)C(=O)N2 [SU6656] (first compound 2 µM, partner dose 0.4 µM) | 86.6% | 219% | 108% | 171% | 264% | 65.2% | 121% | 112% | 103% | 105%
14 | C[C@@H]1CCN(C(=O)CC#N)C[C@@H]1N(C)c1ncnc2[nH]ccc12 + O=C(Nc1cccc(Cl)c1)Nc1ncc(CCNc2ncnc3ccsc23)s1 [SNS314] (first compound 1 µM, partner dose 0.0008 µM) | 64.6% | 18.7% | 91.8% | 46.6% | 136% | 133% | 127% | 84.9% | 92.9% | 92.3%
15 | Cc1ccc(NC(=O)c2cccc(N(C)C)c2)cc1NC(=O)c1ccc(O)cc1 + Cc1cc(N2CCOCC2)cc2[nH]c(-c3c(NC[C@@H](O)c4cccc(Cl)c4)cc[nH]c3=O)nc12 [BMS536924] (first compound 2 µM, partner dose 0.2 µM) | 56.7% | 29.2% | 96.1% | 38.4% | 131% | 212% | 96.9% | 103% | 44.8% | 126%
16 | Nc1cccc2c1CN(C1CCC(=O)NC1=O)C2=O (stereo not given) [lenalidomide] + Cc1ccc(NC(=O)c2cccc(N(C)C)c2)cc1NC(=O)c1ccc(O)cc1 [ZM336372] (first compound 1 µM, partner dose 2 µM) | 101% | 81.7% | 89% | 81.6% | 93.6% | 93% | 101% | 80% | 64.3% | 87.7%
17 | C#Cc1cccc(Nc2ncnc3cc(OCCOC)c(OCCOC)cc23)c1 [erlotinib] + O=C(CCCCCCC(=O)Nc1ccccc1)NO [vorinostat] (first compound 0.8 µM, partner dose 0.08 µM) | 96.5% | 88% | 87.1% | 35.8% | 153% | 236% | 163% | 75.3% | 75.4% | 97.2%
18 | COc1cc(Nc2ncc(F)c(Nc3ccc4c(n3)NC(=O)C(C)(C)O4)n2)cc(OC)c1OC [Tamatinib] + Cc1cc(N2CCOCC2)cc2[nH]c(-c3c(NC[C@@H](O)c4cccc(Cl)c4)cc[nH]c3=O)nc12 [BMS536924] (first compound 0.4 µM, partner dose 0.2 µM) | 157% | 99.7% | 402% | 395% | 210% | 150% | 133% | 100% | 85.1% | 114%
19 | Cc1ccc(NC(=O)c2cccc(N(C)C)c2)cc1NC(=O)c1ccc(O)cc1 + NC(=O)Nc1cc(-c2cccc(F)c2)sc1C(=O)N[C@H]1CCCNC1 [AZD7762] (first compound 2 µM, partner dose 0.02 µM) | 96.2% | 312% | 102% | 341% | 83.9% | 54.1% | 89.5% | 132% | 207% | 109%
20 | C#Cc1cccc(Nc2ncnc3cc(OCCOC)c(OCCOC)cc23)c1 [erlotinib] + NC(=O)Nc1cc(-c2cccc(F)c2)sc1C(=O)N[C@H]1CCCNC1 [AZD7762] (first compound 0.8 µM, partner dose 0.02 µM) | 174% | 52.1% | 129% | 834% | 101% | 205% | 146% | 92.3% | 116% | 104%
21 | C=CCNC1=C2C[C@@H](C)C[C@H](OC)[C@H](O)[C@@H](C)/C=C(\C)[C@H](OC(N)=O)[C@@H](OC)/C=C\C=C(/C)C(=O)NC(=CC1=O)C2=O [Tanespimycin] + Cc1ccc(NC(=O)c2cccc(N(C)C)c2)cc1NC(=O)c1ccc(O)cc1 [ZM336372] (first compound 0.002 µM, partner dose 2 µM) | 45.5% | 43.7% | 94.1% | 102% | 87.9% | 148% | 79.6% | 105% | 237% | 107%
22 | Cn1c(Nc2ccc(C(F)(F)F)cc2)nc2cc(Oc3ccnc(-c4ncc(C(F)(F)F)[nH]4)c3)ccc21 + Cn1cncc1[C@@](N)(c1ccc(Cl)cc1)c1ccc2c(c1)c(-c1cccc(Cl)c1)cc(=O)n2C [tipifarnib] (first compound 0.08 µM, partner dose 0.01 µM) | 552% | 137% | 246% | 1830% | 126% | 190% | 112% | 108% | 237% | 154%

A few values from the entries so far.
Entry of Cc1nc(Nc2ncc(C(=O)Nc3c(C)cccc3Cl)s2)cc(N2CCN(CCO)CC2)n1 [dasatanib] + CC(C)(C)c1cnc(CSc2cnc(NC(=O)C3CCNCC3)s2)o1 [SNS-032] (first compound 0.004 µM, partner dose 0.01 µM) under cleaved PARP positive nuclei fraction (501Mel): 110%
Entry of Cn1c(Nc2ccc(C(F)(F)F)cc2)nc2cc(Oc3ccnc(-c4ncc(C(F)(F)F)[nH]4)c3)ccc21 + Cn1cncc1[C@@](N)(c1ccc(Cl)cc1)c1ccc2c(c1)c(-c1cccc(Cl)c1)cc(=O)n2C [tipifarnib] (first compound 0.08 µM, partner dose 0.01 µM) under cleaved PARP positive nuclei fraction (A375): 1830%
